# Measurements reported in PubChem BioAssay AID686938 (Drosophila RNAi Screening Center, 2013)
# Aim: 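Fly genes required for calcium entry once internal stores are emptied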 (primary screen)
# System: Drosophila S2R+ cells
# Knock-down reagent: long dsRNA against Drosophila genes, about 0.25 µg dsRNA per well, roughly 10,000 cells
# Timing: 5 days of knock-down before the calcium assay
# Challenge: thapsigargin (SERCA pump blocker) to empty calcium stores; entry signal taken 4 min after adding it
# Measurement: 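Per-well fluo-4 fluorescence in two replicates, unnormalised, measured in resting cells and 4 min after store depletion by the SERCA blocker thapsigargin; ratio of the two present in few wells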
# Direction: calcium entry signal: higher = stronger calcium signal after store depletion; resting calcium signal: higher = higher resting calcium signal
# Rule for the call: 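Hit if the duplicate-averaged plate z-score for entry over resting signal is under −3; wells with weak total dye signal (Fmax z < −2) or more than 5 off-targets removed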
# Meaning of the calls: active = strongly reduced calcium entry; inactive = no strong reduction
# The deposit covers about 23,000 reagents; below is an unselected part of those that have a named target and a result. Over the whole deposit, 75 (0.33%) are marked active. 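Raw plate signals without normalisation; calls rest on plate z-scores that were not deposited; ratio present for only 364 wells.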 A plus sign joins genes that one reagent is predicted to hit. The record does not give: the dose of the treatment.
gene,amplicon,"calcium entry signal, replicate 1 (fluorescence units)","calcium entry signal, replicate 2 (fluorescence units)","resting calcium signal, replicate 1 (fluorescence units)","resting calcium signal, replicate 2 (fluorescence units)",Outcome
CG14891,DRSC15013,4.48e7,3.39e7,2.08e7,1.48e7,inactive
CG14238,DRSC14732,2.45e7,4.07e7,1.42e7,1.80e7,inactive
Rnmt (RNA guanine-7 methyltransferase),DRSC03558,3.88e7,1.97e7,1.73e7,1.13e7,inactive
AOX1 (Aldehyde oxidase 1),DRSC15339,3.49e7,4.62e7,1.62e7,2.01e7,inactive
CG42240,DRSC18097,3.66e7,3.55e7,1.81e7,1.81e7,inactive
Rfx,DRSC16820,3.58e7,3.27e7,1.75e7,1.70e7,inactive
link,DRSC06368,2.84e7,2.38e7,1.60e7,1.27e7,inactive
CG15443,DRSC00455,2.21e7,2.03e7,1.10e7,9.49e6,inactive
CG15717,DRSC19684,4.15e7,3.63e7,1.97e7,1.51e7,inactive
CG3566,DRSC18311,3.77e7,3.18e7,1.80e7,1.34e7,inactive
CG10365,DRSC14234,4.38e7,3.69e7,1.92e7,1.68e7,inactive
CG3748,DRSC02716,3.10e7,3.78e7,1.29e7,1.58e7,inactive
CG12861,DRSC06201,2.83e7,4.18e7,1.43e7,1.73e7,inactive
CG12861,DRSC21960,3.79e7,4.01e7,1.78e7,2.12e7,inactive
CG34049,DRSC00104,1.77e7,2.44e7,1.01e7,1.02e7,inactive
Nckx30C,DRSC02686,2.98e7,5.36e7,1.46e7,2.12e7,inactive
Nckx30C,DRSC02687,2.99e7,5.48e7,1.39e7,2.14e7,inactive
Nckx30C,DRSC02688,3.41e7,4.10e7,1.56e7,1.72e7,inactive
Nckx30C,DRSC02689,3.12e7,3.38e7,1.80e7,1.70e7,inactive
CG15578,DRSC18066,3.18e7,4.69e7,1.52e7,2.01e7,inactive
CG10516,DRSC09738,5.73e7,7.10e7,2.50e7,2.89e7,inactive
CG15818,DRSC02505,5.28e7,,2.20e7,,inactive
Gel (Gelsolin),DRSC12350,4.13e7,5.08e7,1.92e7,3.50e7,inactive
CG14042 + SP555,DRSC02367,4.74e7,4.10e7,2.22e7,2.00e7,inactive
CG14042 + SP555,DRSC03428,3.93e7,3.64e7,1.95e7,1.74e7,inactive
Pgant4 (Polypeptide N-Acetylgalactosaminyltransferase 4),DRSC00717,2.80e7,3.17e7,1.49e7,1.42e7,inactive
CG43707,DRSC00280,3.88e7,3.69e7,1.92e7,1.74e7,inactive
CG43707,DRSC22869,1.92e7,2.71e7,1.03e7,1.25e7,inactive
CG43707,DRSC22912,4.53e7,3.59e7,2.33e7,1.81e7,inactive
Agpat1 (1-Acylglycerol-3-phosphate O-acyltransferase 1),DRSC19879,3.22e7,4.58e7,1.70e7,2.18e7,inactive
Agpat1 (1-Acylglycerol-3-phosphate O-acyltransferase 1),DRSC19880,2.69e7,4.38e7,1.35e7,1.99e7,inactive
CG15370,DRSC18042,2.27e7,3.80e7,1.34e7,2.04e7,inactive
CG15370,DRSC23277,4.37e7,3.70e7,1.72e7,1.41e7,inactive
side-VI (sidestep VI),DRSC12828,2.80e7,4.46e7,1.44e7,2.08e7,inactive
side-VI (sidestep VI),DRSC12830,3.32e7,4.67e7,1.71e7,2.24e7,inactive
side-VI (sidestep VI),DRSC14920,3.77e7,3.76e7,1.91e7,1.82e7,inactive
side-VI (sidestep VI),DRSC15624,3.98e7,4.30e7,1.96e7,2.19e7,inactive
side-VI (sidestep VI),DRSC23088,5.88e7,3.69e7,2.93e7,1.47e7,inactive

No new results follow: 9 of the entries above.
gene,amplicon,"calcium entry signal, replicate 1 (fluorescence units)","calcium entry signal, replicate 2 (fluorescence units)","resting calcium signal, replicate 1 (fluorescence units)","resting calcium signal, replicate 2 (fluorescence units)",Outcome
CG3748,DRSC02716,3.10e7,3.78e7,1.29e7,1.58e7,inactive
CG12861,DRSC06201,2.83e7,4.18e7,1.43e7,1.73e7,inactive
CG12861,DRSC21960,3.79e7,4.01e7,1.78e7,2.12e7,inactive
CG34049,DRSC00104,1.77e7,2.44e7,1.01e7,1.02e7,inactive
Nckx30C,DRSC02686,2.98e7,5.36e7,1.46e7,2.12e7,inactive
Nckx30C,DRSC02687,2.99e7,5.48e7,1.39e7,2.14e7,inactive
Nckx30C,DRSC02688,3.41e7,4.10e7,1.56e7,1.72e7,inactive
Nckx30C,DRSC02689,3.12e7,3.38e7,1.80e7,1.70e7,inactive
CG15578,DRSC18066,3.18e7,4.69e7,1.52e7,2.01e7,inactive

Continued.
gene,amplicon,"calcium entry signal, replicate 1 (fluorescence units)","calcium entry signal, replicate 2 (fluorescence units)","resting calcium signal, replicate 1 (fluorescence units)","resting calcium signal, replicate 2 (fluorescence units)",Outcome
l(2)k05911 (lethal (2) k05911),DRSC02523,4.32e7,3.05e7,2.44e7,1.56e7,inactive
CG18528,DRSC15340,3.08e7,5.64e7,1.77e7,1.99e7,inactive
scaf (scarface),DRSC04849,3.25e7,,1.65e7,,inactive
CG4271,DRSC00649,2.44e7,3.11e7,1.14e7,1.29e7,inactive
Ercc1,DRSC07424,2.26e7,2.92e7,1.29e7,1.58e7,inactive
Nmda1 (N-methyl-D-aspartate receptor-associated protein),DRSC07479,4.34e7,4.61e7,1.80e7,1.96e7,inactive
jim,DRSC11889,2.95e7,4.27e7,1.32e7,2.99e7,inactive
Gr98d (Gustatory receptor 98d),DRSC14571,1.91e7,3.23e7,1.14e7,1.46e7,inactive
CG17364,DRSC10269,3.18e7,2.77e7,1.81e7,1.37e7,inactive
CG17364,DRSC10270,2.69e7,5.04e7,1.46e7,2.72e7,inactive
CG17364,DRSC22689,3.28e7,3.93e7,1.42e7,1.63e7,inactive
Zw (Zwischenferment),DRSC20303,3.22e7,2.97e7,1.60e7,1.39e7,inactive
mei-W68 (meiotic W68),DRSC07649,3.90e7,4.45e7,1.59e7,1.87e7,inactive
fs(1)M3 (female sterile (1) M3),DRSC18381,3.38e7,3.52e7,1.59e7,1.69e7,inactive
CG11322,DRSC02142,4.32e7,3.16e7,1.95e7,1.51e7,inactive
Pdp (Pyruvate dehydrogenase phosphatase),DRSC17825,4.29e7,3.99e7,2.04e7,2.04e7,inactive
CG7387,DRSC10833,4.77e7,4.37e7,2.98e7,1.69e7,inactive
Ssu72 (Ssu72 CTD phosphatase),DRSC19572,3.60e7,3.91e7,1.98e7,1.70e7,inactive
CG11905,DRSC09863,2.12e7,3.15e7,1.09e7,2.21e7,inactive
BomBc2 (Bomanin Bicipital 2),DRSC06502,4.93e7,5.28e7,2.08e7,2.36e7,inactive
